Data on three molecules can be found in patent US20070098706A1 (University of Texas, published 2007).

Chains of the proteins cited; added tags and fusions are not shown.
UniProt Q9Y5S8: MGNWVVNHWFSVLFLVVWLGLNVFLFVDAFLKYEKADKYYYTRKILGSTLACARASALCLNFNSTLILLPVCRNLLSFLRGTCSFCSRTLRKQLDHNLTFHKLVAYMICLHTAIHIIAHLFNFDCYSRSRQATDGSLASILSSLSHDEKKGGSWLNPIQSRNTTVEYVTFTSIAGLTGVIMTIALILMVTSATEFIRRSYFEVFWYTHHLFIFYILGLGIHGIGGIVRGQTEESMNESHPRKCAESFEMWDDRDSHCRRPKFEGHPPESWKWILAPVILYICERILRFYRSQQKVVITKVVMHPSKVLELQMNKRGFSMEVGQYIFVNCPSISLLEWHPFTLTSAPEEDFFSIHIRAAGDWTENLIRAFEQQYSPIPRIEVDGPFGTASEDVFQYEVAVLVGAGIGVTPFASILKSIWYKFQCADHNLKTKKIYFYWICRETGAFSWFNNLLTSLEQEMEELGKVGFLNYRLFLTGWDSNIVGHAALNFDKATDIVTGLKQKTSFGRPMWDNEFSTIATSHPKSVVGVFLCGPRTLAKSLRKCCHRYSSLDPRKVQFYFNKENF

These are yes or no findings as the source states them, for the method shown. In cells and extracts the contact can be indirect. Some results given as binding are weak or reduced against the parent protein; the word gives no strength. Tags and fused reporters may be left off the sequences shown.

One assay deals with T1, human NOX2 (human) (UniProt P04839).
T1 sequence (labeled in vitro with [35S]-methionine/[35S]-cysteine, looked up): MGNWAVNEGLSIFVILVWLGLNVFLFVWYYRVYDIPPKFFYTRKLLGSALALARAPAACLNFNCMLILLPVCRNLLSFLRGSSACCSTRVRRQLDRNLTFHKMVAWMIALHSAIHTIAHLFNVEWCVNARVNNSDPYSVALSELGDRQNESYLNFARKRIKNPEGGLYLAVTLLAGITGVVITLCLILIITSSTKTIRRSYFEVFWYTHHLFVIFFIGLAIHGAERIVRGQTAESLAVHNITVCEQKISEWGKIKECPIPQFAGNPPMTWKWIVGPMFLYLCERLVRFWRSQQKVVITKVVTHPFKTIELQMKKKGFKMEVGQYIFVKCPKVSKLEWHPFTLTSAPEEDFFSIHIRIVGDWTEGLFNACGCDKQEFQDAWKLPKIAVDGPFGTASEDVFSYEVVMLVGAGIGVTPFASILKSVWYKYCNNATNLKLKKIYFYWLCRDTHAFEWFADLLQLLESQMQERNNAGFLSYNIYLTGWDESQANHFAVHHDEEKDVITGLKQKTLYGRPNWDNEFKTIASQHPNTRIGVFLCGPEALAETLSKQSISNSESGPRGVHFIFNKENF
Nature of the assay: GST pull-down of 35S-labelled NOX2, SDS-PAGE and fluorography.

The target in a further assay is human NOX1 (human) (UniProt Q9Y5S8). Briefly: GST pull-down of 35S-labelled NOX1, SDS-PAGE and fluorography.
For assay [1], the target named is T2, human p47^phox (human, UniProt P14598 1-390, labeled in vitro with [35S]-methionine/[35S]-cysteine).
T2 construct: no residue limits are printed
T2 sequence (looked up): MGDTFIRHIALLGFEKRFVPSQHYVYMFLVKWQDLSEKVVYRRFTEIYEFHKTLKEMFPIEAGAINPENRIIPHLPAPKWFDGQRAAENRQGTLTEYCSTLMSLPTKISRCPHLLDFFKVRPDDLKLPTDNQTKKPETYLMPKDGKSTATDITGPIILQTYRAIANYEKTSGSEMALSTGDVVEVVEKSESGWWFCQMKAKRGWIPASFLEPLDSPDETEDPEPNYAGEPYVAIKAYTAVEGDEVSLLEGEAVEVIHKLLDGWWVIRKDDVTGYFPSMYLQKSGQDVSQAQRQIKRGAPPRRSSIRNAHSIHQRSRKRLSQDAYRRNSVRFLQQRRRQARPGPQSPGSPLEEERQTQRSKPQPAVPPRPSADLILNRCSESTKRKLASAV
Briefly: GST pull-down of 35S-labelled p47phox, SDS-PAGE and fluorography.

Assay [2] has as its target T2, human p47^phox. Nature of the assay: GST pull-down of 35S-labelled p47phox with isolated SH3-containing polypeptides. The protocol: Binding interactions are carried out between GST, GST-NOXA1, GST-NOXA1_{SH3+)}, GST-(SH3wt) and GST-(SH3+) fusion proteins immobilized on GSH-Sepharose, and the in vitro synthesized [³⁵S]-labeled target proteins. Volumes of fusion protein bacterial lysates, previously determined to give equal loading of the GSH-Sepharose, are mixed for 5 min at room temperature with 250 μl of a 50% suspension of washed GSH-Sepharose in PBS (137 mM NaCl, 2.68 mM KCl, […] Na2HPO4, pH 7.3). The suspension is washed twice and resuspended to 500 μl in PBS with 10 mM DTT. Human NOX1, NOX2, p47^phox and MBP-NOXO1₍₂₈₈₋₃₇₀₎ are synthesized and labeled in vitro with [³⁵S]-methlionine/[³⁵S]-cysteine (Redivue Pro-mix L-[³⁵S] labeling mix, Amersham Biosciences, Inc. # AGQ0080) using the TNT® Coupled Reticulocyte Lysate System (Promega) and T7 RNA polymerase. A 24 μl aliquot of the labeling reaction is mixed with 476 μl of the resuspended immobilized GST fusion protein for 15 min at room temperature. The gel pellet is washed 4X with 500 μl of PBS/10 mM DTT/0.05% Triton X-100. […] The entire volume of the denatured samples is separated on 9% SDS-PAGE and analyzed by fluorography. A sample of the original binding gel is analyzed by denaturing SDS-PAGE and Coomassie staining to confirnm the loading of the GST proteins. […]

B1: GST-NOXA1(SH3+) (protein, not shown: a dimerising Fc or GST)
chain: MASLGDLVRAWHLGAQAVDRGDWARALHLFSGVPAPPARLCFNAGCVHLLAGDPEAALRAFDQAVTKDTCMAVGFFQRGVANFQLARFQEALSDFWLALEQLRGHAAIDYTQLGLRFKLQAWEVLHNVASAQCQLGLWTEAASSLREAMSKWPEGSLNGLDSALDQVQRRGSLPPRQVPRGEVFRPHRWHLKHLEPVDFLGKAKVVASAIPDDQGWGVRPQQPQGPGANHDARSLIMDSPRAGTHQGPLDAETEVGADRCTSTAYQEQRPQVEQVGKQAPLSPGLPAMGGPGPGPCEDPAGAGGAGAGGSEPLVTVTVQCAFTVALRARRGADLSSLRALLGQALPHQAQLGQLSYLAPGEDGHWVPIPEEESLQRAWQDAAACPRGLQLQCRGAGGRPVLYQVVAQHSYSAQGPEDLGFRQGDTVDVLCEEPDVPLAVDQAWLEGHCDGRIGIFPKCFVVPAGPRMSGAPGRLPRSQQGDQP
In the case of B1, the binding entry with human NOX2 (human) and with human NOX1 (human) was “binds” in each case.

B2: GST-NOXA1 (protein, not shown: a dimerising Fc or GST)
chain: MASLGDLVRAWHLGAQAVDRGDWARALHLFSGVPAPPARLCFNAGCVHLLAGDPEAALRAFDQAVTKDTCMAVGFFQRGVANFQLARFQEALSDFWLALEQLRGHAAIDYTQLGLRFKLQAWEVLHNVASAQCQLGLWTEAASSLREAMSKWPEGSLNGLDSALDQVQRRGSLPPRQVPRGEVFRPHRWHLKHLEPVDFLGKAKVVASAIPDDQGWGVRPQQPQGPGANHDARSLIMDSPRAGTHQGPLDAETEVGADRCTSTAYQEQRPQVEQVGKQAPLSPGLPAMGGPGPGPCEDPAGAGGAGAGGSEPLVTVTVQCAFTVALRARRGADLSSLRALLGQALPHQAQLGQLSYLAPGEDGHWVPIPEEESLQRAWQDAAACPRGLQLQCRGAGGRPVLYQVVAQHSYSAQGPEDLGFRQGDTVDVLCEVDQAWLEGHCDGRIGIFPKCFVVPAGPRMSGAPGRLPRSQQGDQP
Regarding B2, the binding result with human NOX2 (human), in the assay with human NOX1 (human) and in the assay with human p47^phox [1] was “binds” in each case.

B3: GST-(SH3)wt (protein, not shown: a dimerising Fc or GST)
chain: RGLQLQCRGAGGRPVLYQVVAQHSYSAQGPEDLGFRQGDTVDVLCEVDQAWLEGHCDGRIGIFPKCFVVPAGPRMSGAPGRLPRSQQGDQP
B3: the binding entry with human p47^phox [2] is on record as “binds”.
